According to article PMC4558782:
No constants are given. Whether binding was seen depends on the method and setting. Binding seen in cells or lysates may run through a third protein. Some entries that bind do so weakly or less than the wild type.

Sequences of proteins named here, by UniProt entry; tags and fusion partners are left off.
UniProt P49841: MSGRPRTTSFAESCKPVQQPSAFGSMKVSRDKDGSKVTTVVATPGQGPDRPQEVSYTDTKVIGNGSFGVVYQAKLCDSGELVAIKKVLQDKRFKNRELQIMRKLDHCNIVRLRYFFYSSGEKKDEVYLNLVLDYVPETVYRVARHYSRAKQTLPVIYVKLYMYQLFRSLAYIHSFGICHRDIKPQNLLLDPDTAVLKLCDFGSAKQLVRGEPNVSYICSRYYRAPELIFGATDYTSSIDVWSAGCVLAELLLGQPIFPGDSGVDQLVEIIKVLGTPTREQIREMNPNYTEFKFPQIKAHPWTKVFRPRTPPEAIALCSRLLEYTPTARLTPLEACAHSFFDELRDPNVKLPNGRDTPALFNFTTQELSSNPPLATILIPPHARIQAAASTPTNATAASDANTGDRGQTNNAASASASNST
UniProt Q05397: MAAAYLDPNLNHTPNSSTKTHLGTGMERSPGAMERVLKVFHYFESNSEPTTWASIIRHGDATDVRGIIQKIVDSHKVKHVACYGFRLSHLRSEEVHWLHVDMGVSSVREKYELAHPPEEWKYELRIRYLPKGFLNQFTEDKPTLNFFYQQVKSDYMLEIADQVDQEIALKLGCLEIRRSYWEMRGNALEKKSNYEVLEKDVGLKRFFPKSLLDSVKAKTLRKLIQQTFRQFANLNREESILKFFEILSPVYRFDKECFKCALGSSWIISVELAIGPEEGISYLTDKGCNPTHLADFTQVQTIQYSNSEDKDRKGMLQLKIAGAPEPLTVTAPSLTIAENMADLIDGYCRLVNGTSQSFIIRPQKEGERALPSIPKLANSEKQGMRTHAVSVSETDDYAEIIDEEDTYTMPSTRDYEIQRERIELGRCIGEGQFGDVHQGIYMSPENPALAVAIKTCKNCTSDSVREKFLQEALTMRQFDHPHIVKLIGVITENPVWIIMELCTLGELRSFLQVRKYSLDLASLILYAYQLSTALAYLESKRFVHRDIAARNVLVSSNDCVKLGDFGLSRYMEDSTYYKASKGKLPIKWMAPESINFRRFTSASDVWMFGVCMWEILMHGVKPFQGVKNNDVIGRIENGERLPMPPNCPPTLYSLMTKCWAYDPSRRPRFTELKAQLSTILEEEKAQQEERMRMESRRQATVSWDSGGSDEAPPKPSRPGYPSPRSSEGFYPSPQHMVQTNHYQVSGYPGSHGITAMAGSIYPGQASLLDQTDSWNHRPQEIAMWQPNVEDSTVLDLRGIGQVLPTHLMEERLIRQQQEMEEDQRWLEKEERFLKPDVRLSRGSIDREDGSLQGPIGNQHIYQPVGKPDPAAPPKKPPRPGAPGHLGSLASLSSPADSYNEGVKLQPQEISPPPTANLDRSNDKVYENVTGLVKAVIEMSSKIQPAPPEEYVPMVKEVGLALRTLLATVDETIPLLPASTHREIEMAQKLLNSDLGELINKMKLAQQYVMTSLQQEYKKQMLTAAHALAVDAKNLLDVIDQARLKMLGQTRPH
UniProt Q14289: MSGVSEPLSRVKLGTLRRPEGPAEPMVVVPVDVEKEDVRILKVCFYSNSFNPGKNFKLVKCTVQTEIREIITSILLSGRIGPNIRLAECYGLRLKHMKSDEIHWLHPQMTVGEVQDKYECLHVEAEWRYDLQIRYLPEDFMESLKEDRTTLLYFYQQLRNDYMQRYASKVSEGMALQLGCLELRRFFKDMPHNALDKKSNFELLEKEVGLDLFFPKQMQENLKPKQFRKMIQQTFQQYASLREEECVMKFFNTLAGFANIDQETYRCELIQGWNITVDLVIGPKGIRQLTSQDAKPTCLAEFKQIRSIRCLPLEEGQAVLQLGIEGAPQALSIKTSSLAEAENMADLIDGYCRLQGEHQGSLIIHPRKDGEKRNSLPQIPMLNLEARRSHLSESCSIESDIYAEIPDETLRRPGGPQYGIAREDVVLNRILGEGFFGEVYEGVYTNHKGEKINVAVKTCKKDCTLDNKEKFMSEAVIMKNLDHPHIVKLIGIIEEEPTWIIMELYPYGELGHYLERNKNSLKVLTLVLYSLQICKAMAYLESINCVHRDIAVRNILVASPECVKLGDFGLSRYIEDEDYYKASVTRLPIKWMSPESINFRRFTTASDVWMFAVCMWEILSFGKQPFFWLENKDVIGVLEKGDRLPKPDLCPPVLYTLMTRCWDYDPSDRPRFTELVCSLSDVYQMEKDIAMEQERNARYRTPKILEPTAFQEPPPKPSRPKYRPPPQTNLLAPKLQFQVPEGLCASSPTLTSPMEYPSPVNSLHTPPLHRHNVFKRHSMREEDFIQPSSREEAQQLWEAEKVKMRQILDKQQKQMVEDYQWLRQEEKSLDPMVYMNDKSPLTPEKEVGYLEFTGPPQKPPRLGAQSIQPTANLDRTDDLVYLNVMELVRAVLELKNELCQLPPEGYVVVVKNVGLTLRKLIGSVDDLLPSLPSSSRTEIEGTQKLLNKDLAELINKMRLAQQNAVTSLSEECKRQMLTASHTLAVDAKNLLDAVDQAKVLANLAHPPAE

Target: GSK3β, endogenous in SW480 and HT-29 cells (human (endogenous in SW480 and HT-29)) (UniProt P49841)
Test: co-IP; endogenous GSK3β immunoprecipitated with anti-GSK3β from SW480 and HT29 cells, IB with anti-PYK2 and anti-FAK; normal IgG as IP control

Substance	binding
FAK, endogenous in HT-29 cells (from UniProt Q05397 1-1052) (enzyme)	binds
PYK2, endogenous in SW480 cells (from UniProt Q14289 1-1009) (enzyme)	binds
